We go through 30 targets from the supplement of paper PMC10849652.

Chains of the proteins cited; added tags and fusions are not shown. Lines headed by an entry give the natural chain unless they say otherwise; changes in a name come on top.
UniProt Q96LT7: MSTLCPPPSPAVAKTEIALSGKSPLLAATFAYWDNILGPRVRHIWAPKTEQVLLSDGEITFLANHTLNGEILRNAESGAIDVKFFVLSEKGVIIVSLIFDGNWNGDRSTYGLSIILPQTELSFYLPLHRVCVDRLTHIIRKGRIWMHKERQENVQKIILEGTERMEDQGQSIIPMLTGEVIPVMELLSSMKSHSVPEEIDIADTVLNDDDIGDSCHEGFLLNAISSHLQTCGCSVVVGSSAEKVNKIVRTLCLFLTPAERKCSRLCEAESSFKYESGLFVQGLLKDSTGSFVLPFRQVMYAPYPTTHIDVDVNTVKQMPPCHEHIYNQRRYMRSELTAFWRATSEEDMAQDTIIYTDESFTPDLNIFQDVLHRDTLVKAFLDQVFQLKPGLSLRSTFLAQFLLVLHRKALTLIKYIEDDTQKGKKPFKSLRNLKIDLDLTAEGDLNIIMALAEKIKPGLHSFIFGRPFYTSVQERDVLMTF
UniProt P00915: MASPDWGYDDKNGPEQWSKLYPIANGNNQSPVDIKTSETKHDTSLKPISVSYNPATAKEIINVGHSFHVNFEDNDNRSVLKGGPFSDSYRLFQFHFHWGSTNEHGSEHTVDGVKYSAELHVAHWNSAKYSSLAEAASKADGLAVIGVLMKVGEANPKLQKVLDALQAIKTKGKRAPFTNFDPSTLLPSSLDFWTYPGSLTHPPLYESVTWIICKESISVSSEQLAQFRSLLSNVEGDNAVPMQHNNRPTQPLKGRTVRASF
UniProt Q9NSG2: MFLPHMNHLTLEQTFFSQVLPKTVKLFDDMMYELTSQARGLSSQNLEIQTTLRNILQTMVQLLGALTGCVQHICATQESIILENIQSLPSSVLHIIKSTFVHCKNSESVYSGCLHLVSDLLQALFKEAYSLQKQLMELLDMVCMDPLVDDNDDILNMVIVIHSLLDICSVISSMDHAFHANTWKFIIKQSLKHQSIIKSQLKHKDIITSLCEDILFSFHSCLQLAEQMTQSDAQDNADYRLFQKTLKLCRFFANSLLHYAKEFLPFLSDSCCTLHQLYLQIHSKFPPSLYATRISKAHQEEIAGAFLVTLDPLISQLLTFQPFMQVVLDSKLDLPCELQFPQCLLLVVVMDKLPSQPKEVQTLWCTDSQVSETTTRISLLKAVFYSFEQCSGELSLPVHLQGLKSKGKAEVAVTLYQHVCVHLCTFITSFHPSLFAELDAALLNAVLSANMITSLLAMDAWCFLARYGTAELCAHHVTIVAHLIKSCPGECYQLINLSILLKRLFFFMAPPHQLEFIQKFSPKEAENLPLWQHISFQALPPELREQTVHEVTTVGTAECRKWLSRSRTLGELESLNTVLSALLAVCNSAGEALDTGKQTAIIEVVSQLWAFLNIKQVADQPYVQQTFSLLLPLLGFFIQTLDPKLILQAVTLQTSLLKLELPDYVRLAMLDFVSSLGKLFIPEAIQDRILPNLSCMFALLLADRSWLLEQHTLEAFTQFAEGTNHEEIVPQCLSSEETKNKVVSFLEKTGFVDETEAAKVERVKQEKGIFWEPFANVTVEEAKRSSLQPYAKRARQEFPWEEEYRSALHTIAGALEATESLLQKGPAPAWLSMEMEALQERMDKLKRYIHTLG
UniProt Q7Z6I8: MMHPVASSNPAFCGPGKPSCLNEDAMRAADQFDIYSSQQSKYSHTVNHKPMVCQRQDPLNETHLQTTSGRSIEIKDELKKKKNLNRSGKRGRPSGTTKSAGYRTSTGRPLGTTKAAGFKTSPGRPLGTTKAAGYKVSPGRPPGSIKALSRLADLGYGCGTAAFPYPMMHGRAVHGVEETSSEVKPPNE
UniProt Q96LW7: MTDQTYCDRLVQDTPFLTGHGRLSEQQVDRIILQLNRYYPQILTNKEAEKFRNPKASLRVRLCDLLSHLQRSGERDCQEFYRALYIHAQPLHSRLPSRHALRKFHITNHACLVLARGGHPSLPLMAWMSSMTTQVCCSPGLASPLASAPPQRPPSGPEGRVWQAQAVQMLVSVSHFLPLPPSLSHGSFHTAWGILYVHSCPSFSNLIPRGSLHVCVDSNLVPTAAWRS
UniProt Q9Y297: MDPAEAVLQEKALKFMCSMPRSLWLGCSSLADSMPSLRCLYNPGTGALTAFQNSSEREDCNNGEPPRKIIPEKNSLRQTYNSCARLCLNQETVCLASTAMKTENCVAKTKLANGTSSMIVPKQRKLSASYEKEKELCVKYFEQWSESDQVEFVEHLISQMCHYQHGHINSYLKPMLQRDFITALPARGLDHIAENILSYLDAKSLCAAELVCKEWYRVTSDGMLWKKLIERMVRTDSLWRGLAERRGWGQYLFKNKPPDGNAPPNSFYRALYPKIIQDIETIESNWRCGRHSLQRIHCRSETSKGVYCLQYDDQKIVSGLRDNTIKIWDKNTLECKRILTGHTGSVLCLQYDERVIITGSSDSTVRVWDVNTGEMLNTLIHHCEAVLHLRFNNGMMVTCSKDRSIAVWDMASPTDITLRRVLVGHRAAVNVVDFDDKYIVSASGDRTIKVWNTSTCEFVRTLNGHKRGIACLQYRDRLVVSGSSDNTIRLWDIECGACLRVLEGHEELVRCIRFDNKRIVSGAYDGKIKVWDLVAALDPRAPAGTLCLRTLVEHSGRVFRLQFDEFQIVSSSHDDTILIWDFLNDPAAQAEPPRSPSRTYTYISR
UniProt Q5BKX5: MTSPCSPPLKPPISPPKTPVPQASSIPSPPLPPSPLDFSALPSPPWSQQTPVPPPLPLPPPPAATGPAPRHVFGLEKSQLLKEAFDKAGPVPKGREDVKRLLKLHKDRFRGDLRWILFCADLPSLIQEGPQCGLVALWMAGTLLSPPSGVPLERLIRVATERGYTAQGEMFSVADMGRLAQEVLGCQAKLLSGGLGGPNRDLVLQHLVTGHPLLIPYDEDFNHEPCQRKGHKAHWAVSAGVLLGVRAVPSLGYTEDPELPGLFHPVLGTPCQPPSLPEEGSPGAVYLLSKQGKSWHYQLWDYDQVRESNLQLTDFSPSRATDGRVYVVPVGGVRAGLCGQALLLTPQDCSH
UniProt Q9H9S4: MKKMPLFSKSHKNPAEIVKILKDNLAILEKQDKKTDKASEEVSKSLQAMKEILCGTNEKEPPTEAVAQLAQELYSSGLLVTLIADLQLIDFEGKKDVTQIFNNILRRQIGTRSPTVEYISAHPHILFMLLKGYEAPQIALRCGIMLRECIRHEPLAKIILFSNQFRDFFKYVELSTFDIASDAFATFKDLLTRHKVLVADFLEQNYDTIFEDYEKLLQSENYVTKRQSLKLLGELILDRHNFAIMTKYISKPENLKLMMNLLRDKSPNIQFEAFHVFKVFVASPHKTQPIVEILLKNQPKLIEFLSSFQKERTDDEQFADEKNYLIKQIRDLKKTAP
UniProt Q9BRD0: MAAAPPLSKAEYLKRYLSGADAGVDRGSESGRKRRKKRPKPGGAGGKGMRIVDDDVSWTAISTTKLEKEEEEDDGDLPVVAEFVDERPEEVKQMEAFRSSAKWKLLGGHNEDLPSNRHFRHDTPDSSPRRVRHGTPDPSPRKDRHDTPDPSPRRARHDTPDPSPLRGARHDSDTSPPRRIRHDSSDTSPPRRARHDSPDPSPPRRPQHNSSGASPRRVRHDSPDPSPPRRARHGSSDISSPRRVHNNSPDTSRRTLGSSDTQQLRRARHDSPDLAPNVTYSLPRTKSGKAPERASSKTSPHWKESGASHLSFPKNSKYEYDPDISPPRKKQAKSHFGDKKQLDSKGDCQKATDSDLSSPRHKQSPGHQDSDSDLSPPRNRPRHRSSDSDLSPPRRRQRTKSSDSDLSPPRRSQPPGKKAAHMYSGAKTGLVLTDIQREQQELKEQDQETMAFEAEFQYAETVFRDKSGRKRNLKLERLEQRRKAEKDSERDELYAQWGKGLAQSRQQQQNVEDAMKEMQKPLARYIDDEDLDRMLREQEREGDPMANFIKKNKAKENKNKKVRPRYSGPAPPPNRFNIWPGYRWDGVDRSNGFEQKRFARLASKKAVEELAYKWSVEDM
UniProt P0DMB2: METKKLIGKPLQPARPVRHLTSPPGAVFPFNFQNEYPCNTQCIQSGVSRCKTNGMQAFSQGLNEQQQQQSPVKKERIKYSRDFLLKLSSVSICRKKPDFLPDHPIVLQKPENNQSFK
UniProt Q9Y2V0: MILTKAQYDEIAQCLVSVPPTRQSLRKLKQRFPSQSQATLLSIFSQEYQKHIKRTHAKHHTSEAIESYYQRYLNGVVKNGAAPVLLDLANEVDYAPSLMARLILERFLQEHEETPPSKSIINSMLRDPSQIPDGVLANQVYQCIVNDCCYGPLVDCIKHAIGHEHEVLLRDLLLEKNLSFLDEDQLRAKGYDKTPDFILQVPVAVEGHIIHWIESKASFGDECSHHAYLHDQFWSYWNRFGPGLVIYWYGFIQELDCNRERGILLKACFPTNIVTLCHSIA
UniProt Q5SNV9: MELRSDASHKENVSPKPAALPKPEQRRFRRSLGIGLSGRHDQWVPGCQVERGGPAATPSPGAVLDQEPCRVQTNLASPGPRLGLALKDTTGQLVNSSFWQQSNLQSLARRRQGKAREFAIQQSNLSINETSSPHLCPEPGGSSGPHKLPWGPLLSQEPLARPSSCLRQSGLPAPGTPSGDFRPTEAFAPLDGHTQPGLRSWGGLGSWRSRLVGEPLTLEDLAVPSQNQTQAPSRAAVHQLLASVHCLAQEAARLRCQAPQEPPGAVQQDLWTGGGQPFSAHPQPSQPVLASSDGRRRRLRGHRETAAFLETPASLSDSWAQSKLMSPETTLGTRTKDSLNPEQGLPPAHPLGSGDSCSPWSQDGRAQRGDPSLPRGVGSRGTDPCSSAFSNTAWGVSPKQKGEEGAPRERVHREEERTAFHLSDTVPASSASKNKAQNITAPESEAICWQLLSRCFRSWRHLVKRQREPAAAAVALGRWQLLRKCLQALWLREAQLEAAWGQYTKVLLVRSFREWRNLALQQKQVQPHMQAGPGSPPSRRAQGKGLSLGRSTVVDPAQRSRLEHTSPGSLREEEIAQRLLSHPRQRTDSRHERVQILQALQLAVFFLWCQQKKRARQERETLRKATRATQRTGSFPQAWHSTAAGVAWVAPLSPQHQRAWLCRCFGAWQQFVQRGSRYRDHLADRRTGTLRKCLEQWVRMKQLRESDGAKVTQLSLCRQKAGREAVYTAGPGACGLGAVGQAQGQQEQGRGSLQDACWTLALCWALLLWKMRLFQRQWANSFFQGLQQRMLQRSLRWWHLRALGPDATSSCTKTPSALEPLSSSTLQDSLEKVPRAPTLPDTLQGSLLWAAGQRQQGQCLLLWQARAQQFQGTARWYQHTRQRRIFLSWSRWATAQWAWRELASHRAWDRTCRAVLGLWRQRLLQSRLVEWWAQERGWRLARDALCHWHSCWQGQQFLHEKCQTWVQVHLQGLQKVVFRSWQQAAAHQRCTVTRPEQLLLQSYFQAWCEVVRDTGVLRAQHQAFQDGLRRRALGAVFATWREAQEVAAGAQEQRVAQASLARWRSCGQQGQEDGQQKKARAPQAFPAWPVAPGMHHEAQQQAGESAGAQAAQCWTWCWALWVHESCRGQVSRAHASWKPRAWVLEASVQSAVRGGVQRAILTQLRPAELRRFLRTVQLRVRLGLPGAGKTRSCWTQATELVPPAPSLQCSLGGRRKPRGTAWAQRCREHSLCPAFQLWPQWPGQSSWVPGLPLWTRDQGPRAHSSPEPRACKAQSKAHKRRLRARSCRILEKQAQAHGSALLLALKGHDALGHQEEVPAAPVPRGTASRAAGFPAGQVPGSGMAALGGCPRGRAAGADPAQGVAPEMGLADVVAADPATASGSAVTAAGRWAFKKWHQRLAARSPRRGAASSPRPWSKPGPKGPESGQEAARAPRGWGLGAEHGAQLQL
UniProt Q5JPI3: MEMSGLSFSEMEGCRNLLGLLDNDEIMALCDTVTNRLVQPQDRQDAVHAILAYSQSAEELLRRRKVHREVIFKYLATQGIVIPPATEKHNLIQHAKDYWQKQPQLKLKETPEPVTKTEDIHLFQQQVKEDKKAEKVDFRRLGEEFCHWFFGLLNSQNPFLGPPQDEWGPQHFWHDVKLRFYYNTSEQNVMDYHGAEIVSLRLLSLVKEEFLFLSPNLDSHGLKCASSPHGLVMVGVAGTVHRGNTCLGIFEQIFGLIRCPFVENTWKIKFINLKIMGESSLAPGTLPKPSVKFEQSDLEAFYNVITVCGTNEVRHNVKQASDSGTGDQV
UniProt Q3KRA6: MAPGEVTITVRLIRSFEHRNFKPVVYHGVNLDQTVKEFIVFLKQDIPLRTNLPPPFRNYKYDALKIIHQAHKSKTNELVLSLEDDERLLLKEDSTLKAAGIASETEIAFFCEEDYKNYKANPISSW
UniProt Q9H3J6: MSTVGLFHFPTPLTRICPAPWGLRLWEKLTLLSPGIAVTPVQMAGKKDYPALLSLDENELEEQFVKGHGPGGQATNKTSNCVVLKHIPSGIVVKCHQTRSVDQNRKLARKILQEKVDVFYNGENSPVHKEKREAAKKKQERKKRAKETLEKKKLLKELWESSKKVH
UniProt Q6P5X5: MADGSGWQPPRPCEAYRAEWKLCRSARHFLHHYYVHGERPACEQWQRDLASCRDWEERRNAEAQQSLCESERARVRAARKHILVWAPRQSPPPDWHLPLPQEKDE

This is one part of the list.

Compound in the first test: CCn1cc(-c2ccnc3[nH]c(-c4cccc(CN(C)C)c4)cc23)c(-c2ccc(NC(=O)N(C)C)cc2)n1
Put plainly: log2 fold change, soluble protein after heating vs DMSO (PISA); higher = thermal stabilisation; K562 cells, 10 uM, 30 min; active = over 0.2 and 3.5 SD of the protein, either way, in both replicates (recomputed). The essentials:
(§1)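 Aliquots of K562 cells (2×10^6 cells/mL) treated with 10 μM compound for 30 min were heated for 3 min over 48°C-58°C. After pooling and extraction in PBS with 0.5% NP-40 at 4°C, soluble protein from a 21,000xg, 90 min spin was quantified by TMTpro 16plex LC-MS/MS with channel sums equalised. Thermal stability is expressed against control samples, from duplicates, as a log2 fold change.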
For C9orf72 (UniProt Q96LT7), the log2 fold change is inactive: 0.226.
As for CA1 (UniProt P00915), the log2 fold change is inactive: 0.042.
Consider C1orf112 (UniProt Q9NSG2), for which the log2 fold change is inactive: -0.094.
For C5orf24 (UniProt Q7Z6I8), the log2 fold change was inactive: 0.14.
For CARD19 isoform 2 (UniProt Q96LW7), the log2 fold change was inactive: -0.043.
On to C4BPA (UniProt P04003), for which the log2 fold change is inactive: -0.284.
For the target CAMKK2 (UniProt Q96RR4), the log2 fold change is inactive: -0.093.
For the target C11orf74 (UniProt Q86VG3), the log2 fold change is inactive: 0.13.
Consider BTRC (UniProt Q9Y297), for which the log2 fold change was inactive: -0.027.
Consider CAPN15 (UniProt O75808), for which the log2 fold change is inactive: -0.007.
As to C19orf54 (UniProt Q5BKX5), the log2 fold change is inactive: 0.056.
Consider CAB39L (UniProt Q9H9S4), for which the log2 fold change is inactive: 0.161.
Still for that read-out and setting: in the case of BUD13 (UniProt Q9BRD0) it was inactive: 0.089; in that of C1D (UniProt Q13901), inactive: -0.021.
Take C8orf88 (UniProt P0DMB2): the log2 fold change is inactive: 0.
With C15orf41 (UniProt Q9Y2V0), the log2 fold change is active: -0.333.

Compound in another test: CN(C)CC(=O)Nc1ccc2[nH]c(=O)c3ccccc3c2c1
The description is as above. The method, boiled down: as §1
C9orf72 (UniProt Q96LT7): the log2 fold change is inactive: 0.075.
On to C6orf120 (UniProt Q7Z4R8), for which the log2 fold change was inactive: -0.155.
As for C1orf167 isoform 2 (UniProt Q5SNV9), the log2 fold change is inactive: -0.259.
Turning to CA1 (UniProt P00915), the log2 fold change is inactive: -0.002.
On the same count and under the same terms, in the case of C1orf112 (UniProt Q9NSG2) it was inactive: -0.018.
Regarding C5orf24 (UniProt Q7Z6I8), the log2 fold change is inactive: -0.104.
Still for that read-out and setting: in the case of C16orf87 (UniProt Q6PH81) it was inactive: -0.036; in that of CA2 (UniProt P00918), inactive: 0.22; in that of C9orf85 isoform 1 (UniProt Q96MD7), inactive: 0.02.
In the case of CARD19 isoform 2 (UniProt Q96LW7), the log2 fold change was inactive: -0.025.
As for CAMKK2 (UniProt Q96RR4), the log2 fold change was inactive: 0.145.
Take C11orf74 (UniProt Q86VG3): the log2 fold change was inactive: 0.08.
For BTRC (UniProt Q9Y297), the log2 fold change is inactive: 0.029.
Take C3orf38 (UniProt Q5JPI3): the log2 fold change is inactive: 0.065.
C19orf54 (UniProt Q5BKX5): the log2 fold change is inactive: 0.036.
With C2orf76 (UniProt Q3KRA6), the log2 fold change is inactive: -0.003.
With CAB39L (UniProt Q9H9S4), the log2 fold change was inactive: -0.169.
Consider BUD13 (UniProt Q9BRD0), for which the log2 fold change was inactive: -0.18.
For C1D (UniProt Q13901), the log2 fold change is inactive: -0.127.
Still for that read-out and setting: in the case of C8orf88 (UniProt P0DMB2) it was inactive: -0.046; in that of C12orf65 (UniProt Q9H3J6), inactive: -0.098.
In the case of C15orf41 (UniProt Q9Y2V0), the log2 fold change is inactive: -0.022.

Compound in another test: CN(CCOC1=CC=C(C=C1)C[C@H]2C(=O)NC(=O)S2)C3=CC=CC=N3 (racemic) [rosiglitazone]
The test is described as above. The method, boiled down: as §1
As to C1orf167 isoform 2 (UniProt Q5SNV9), the log2 fold change is inactive: 0.075.
For C16orf87 (UniProt Q6PH81), the log2 fold change was inactive: 0.174.
On to CA2 (UniProt P00918), for which the log2 fold change is inactive: 0.122.
Take CARD19 isoform 2 (UniProt Q96LW7): the log2 fold change is inactive: 0.074.
On to C4BPA (UniProt P04003), for which the log2 fold change was inactive: -0.034.
CAMK1 (UniProt Q14012): the log2 fold change is inactive: 0.235.
For the target C19orf12 (UniProt Q9NSK7), the log2 fold change was inactive: 0.071.
With BTRC (UniProt Q9Y297), the log2 fold change is inactive: -0.043.
With CAPN15 (UniProt O75808), the log2 fold change is inactive: 0.053.
With C3orf38 (UniProt Q5JPI3), the log2 fold change is inactive: 0.085.
Turning to CAPN1 (UniProt E9PLX0), the log2 fold change was inactive: 0.294.
The same measure, in the same setting: in the case of C2orf76 (UniProt Q3KRA6) it was inactive: 0.029; in that of C8orf88 (UniProt P0DMB2), inactive: 0.084; in that of C6orf136 isoform 4 (UniProt Q5SQH8), inactive: -0.083.
Regarding C12orf65 (UniProt Q9H3J6), the log2 fold change is inactive: -0.057.

Compound in the next test: CN1C2=C(C3=C1C(=O)N(N=C3)CC4=CC(=CC=C4)N)SC(=C2)S(=O)C
The test is described as above. The essentials:
as §1
For the target C9orf72 (UniProt Q96LT7), the log2 fold change was inactive: -0.094.
With C6orf120 (UniProt Q7Z4R8), the log2 fold change is inactive: -0.245.
With C1orf167 isoform 2 (UniProt Q5SNV9), the log2 fold change was inactive: 0.215.
On to CA1 (UniProt P00915), for which the log2 fold change was inactive: -0.034.
On to C1orf112 (UniProt Q9NSG2), for which the log2 fold change was inactive: -0.166.
As for C5orf24 (UniProt Q7Z6I8), the log2 fold change is inactive: 0.123.
CALML3 (UniProt P27482): the log2 fold change is inactive: 1.85.
As to CA2 (UniProt P00918), the log2 fold change is inactive: 0.333.
For C9orf85 isoform 1 (UniProt Q96MD7), the log2 fold change is inactive: 0.031.
As to CARD19 isoform 2 (UniProt Q96LW7), the log2 fold change is inactive: 0.047.
For the target CAMKK2 (UniProt Q96RR4), the log2 fold change is inactive: -0.008.
Consider BTRC (UniProt Q9Y297), for which the log2 fold change was inactive: -0.063.
With C3orf38 (UniProt Q5JPI3), the log2 fold change was inactive: -0.005.
Take C19orf54 (UniProt Q5BKX5): the log2 fold change is inactive: -0.177.
For C2orf76 (UniProt Q3KRA6), the log2 fold change was inactive: -0.091.
Still for that read-out and setting: in the case of CAB39L (UniProt Q9H9S4) it was inactive: -0.047.
As to BUD13 (UniProt Q9BRD0), the log2 fold change was inactive: 0.17.
As to C22orf39 (UniProt Q6P5X5), the log2 fold change is inactive: 0.043.
Still for that read-out and setting: in the case of C6orf136 isoform 4 (UniProt Q5SQH8) it was inactive: -0.004; in that of C12orf65 (UniProt Q9H3J6), inactive: 0.059.
In the case of C15orf41 (UniProt Q9Y2V0), the log2 fold change is inactive: 0.019.
